Data reported in paper PMC10184829.
No constants are given. Whether binding was seen depends on the method and setting. In cells and extracts the contact can be indirect. Some entries that bind do so weakly or less than the wild type. For some assays here: Where a sequence is shown, tags or fusion partners need not be part of it.

Columns and labels:
[1] = biological target: T1, Paracingulin (CGNL1), endogenous in mCCD cells (mouse (endogenous in mCCD)) (UniProt Q6AW69); test: co-IP; total lysates of mCCD cells immunoprecipitated with anti-CGNL1 antibodies (anti-HA as negative control); immunoblot for CGNL1, CAMSAP3 and PLEKHA7
T1 sequence: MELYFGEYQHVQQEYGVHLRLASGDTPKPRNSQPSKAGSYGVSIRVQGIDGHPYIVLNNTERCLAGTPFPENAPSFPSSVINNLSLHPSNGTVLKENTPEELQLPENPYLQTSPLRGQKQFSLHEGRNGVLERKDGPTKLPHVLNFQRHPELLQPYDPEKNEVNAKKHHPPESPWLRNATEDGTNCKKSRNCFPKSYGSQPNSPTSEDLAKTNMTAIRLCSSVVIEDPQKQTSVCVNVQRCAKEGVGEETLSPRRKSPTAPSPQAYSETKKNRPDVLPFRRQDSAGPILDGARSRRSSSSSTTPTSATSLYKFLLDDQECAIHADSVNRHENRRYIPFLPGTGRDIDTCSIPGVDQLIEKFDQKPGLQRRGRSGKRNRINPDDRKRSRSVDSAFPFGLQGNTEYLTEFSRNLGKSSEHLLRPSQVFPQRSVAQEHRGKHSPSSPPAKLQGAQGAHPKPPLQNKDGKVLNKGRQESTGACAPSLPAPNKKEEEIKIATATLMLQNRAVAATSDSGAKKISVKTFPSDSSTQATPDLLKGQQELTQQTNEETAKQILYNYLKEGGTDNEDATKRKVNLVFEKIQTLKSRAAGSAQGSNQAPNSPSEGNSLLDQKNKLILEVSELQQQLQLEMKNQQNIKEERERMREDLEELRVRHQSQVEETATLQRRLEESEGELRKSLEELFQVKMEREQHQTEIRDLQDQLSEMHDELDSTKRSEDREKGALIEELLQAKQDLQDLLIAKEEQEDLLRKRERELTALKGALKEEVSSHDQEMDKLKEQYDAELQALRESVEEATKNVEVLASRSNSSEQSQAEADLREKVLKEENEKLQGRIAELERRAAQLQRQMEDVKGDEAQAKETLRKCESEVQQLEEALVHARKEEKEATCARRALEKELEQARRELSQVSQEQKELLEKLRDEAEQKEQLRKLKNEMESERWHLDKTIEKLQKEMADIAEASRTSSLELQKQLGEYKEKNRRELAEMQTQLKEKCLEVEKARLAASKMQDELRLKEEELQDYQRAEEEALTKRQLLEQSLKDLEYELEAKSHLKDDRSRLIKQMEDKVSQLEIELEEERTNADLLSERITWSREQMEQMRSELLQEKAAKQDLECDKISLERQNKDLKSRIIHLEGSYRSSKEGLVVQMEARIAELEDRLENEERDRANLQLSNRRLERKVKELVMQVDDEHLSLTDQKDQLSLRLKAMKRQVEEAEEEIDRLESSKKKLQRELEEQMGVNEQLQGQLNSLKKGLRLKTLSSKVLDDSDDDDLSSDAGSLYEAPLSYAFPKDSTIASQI

[2] = biological target: T1, Paracingulin (CGNL1), endogenous in mCCD cells (mouse (endogenous in mCCD)); test: proximity ligation; PLA for CGNL1 and CAMSAP3 in mCCD cells (WT, PLEKHA7-KO, CGN-KO; CGNL1-KO as negative control), ZO-1 as junctional marker
[3] = biological target: T2, GST-CGNL1 fragment D (Rod-1 region, residues 591-882) (human) (UniProt Q0VF96); test: pull-down; GST fusion proteins as baits; GFP-tagged preys expressed in HEK293T cells, in lysates; immunoblot with anti-GFP antibodies; only the target purified
T2 sequence: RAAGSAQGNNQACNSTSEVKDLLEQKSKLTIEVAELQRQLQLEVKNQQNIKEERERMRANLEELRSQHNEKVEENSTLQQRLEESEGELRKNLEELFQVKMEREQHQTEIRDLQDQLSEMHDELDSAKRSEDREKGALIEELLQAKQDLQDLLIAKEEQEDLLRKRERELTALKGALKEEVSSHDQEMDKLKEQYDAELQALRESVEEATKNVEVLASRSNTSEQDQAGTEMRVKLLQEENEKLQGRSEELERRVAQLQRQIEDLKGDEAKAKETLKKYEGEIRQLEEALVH

B1: CAMSAP3, endogenous in mCCD cells (protein, UniProt Q80VC9-1 1-1252)
chain: MVEAAPAGSGPLRRTFLVPEIKSLDQYDFSRAKAAASLAWVLRAAFGGAEHVPPELWEPFYTDQYAQEHVKPPVTRLLLSAELYCRAWRQALPQLEPSPSPSALLALLARRGTVPSLPEHPVREADLKHQPILMGAHLAVIDALMVAFSFEWTKTLPGPLALSSLEHKLLFWVDTTVRRLQEKTEQEAAQRASPAAPLDGASPAQPSIRYRKDRAIARRAPCFPNVTTLQDLASGAALAATIHCYCPQLLRLEEVCLKDPMSVADSLYNLQLVQDFCASHLPRGCPLSLEDLLYVPPPLKVNLVVLLAEMYMCFEVLKPDFVQAKDLPDGHAVSPRNTETVPSQNNSGSSSPVFNFRHPLLSPGGPQSPLRGSTGSLKSSPSMSHMEALGKAWNRQLSRPLSQAVSFSTPFGLDSDVDVVMGDPVLLRSVSSDSLGPPRPVSTSSRNSAQPAPESGDLPTIEEALQIIHSAEPRLLPDGAADGSFYLHSPEGLSKPPLSPYPPEGASKPLSDRLNKAPIYISHPENPSKSSPCSTGEILKPPPPSEGSPKAVASSPAANNSEVKMTSFAERKKQLVKAEAESGLGSPTSTPVAPEALSSEMSELGARLEEKRRAIEAQKRRIEAIFAKHRQRLGKSAFLQVQPREAAGEAEEEAELGSVPGGERPAGEGQGEPSLRHKSVTFSPDLGPVPPEGLGDYNRAVSKLSAALSSLQRDMQRLTDQQQRLLAPPEAPGPAPPPAAWVIPGPATGPKAASPSPARRAPAARRSPGPGPSPTPRSPKHARPAELKLAPLTRVLTPPHDVDSLPHLRKFSPSQVPVQTRSSILLSEGTPPEEPTTKPALIEIPLASLGEPAADEEGDGSPPGAEDSLEEEASSEGEPRSGLGFFYKDEDKPEDEMAQKRASLLERQQRRVEEARRRKQWQEAEKEQKREEAARLAQEAPGLAFTTPVVASAAPVATLAPTTRAMAPAEEEVGPRRGDFTRLEYERRAQLKLMDDLDKVLRPRASGTGGPGRGGRRATRPRSGCCDDSALARSPARGLLGSRLSKVYSQSTLSLSTVANEAPNNLGVKRPTSRAPSPSGLMSPSRLPGSRERDWENGSNASSPASVPEYTGPRLYKEPSAKSNKFIIHNALSHCCLAGKVNEPQKNRILEEIEKSKANHFLILFRDSSCQFRALYTLSGETEELSRLAGYGPRTVTPAMVEGIYKYNSDRKRFTQIPAKTMSMSVDAFTIQGHLWQSKKPTTPKKGGGTPK
In the case of B1, the binding [1] is reported as “binds” and the binding [2] is reported as “binds”.

B2: PLEKHA7, endogenous in mCCD cells (protein, UniProt Q3UIL6 1-1118)
chain: MAAAVGRDTLPEHWSYGVCRDGRVFFINDQLRCTTWLHPRTGEPVNSGHMIRSDLPRGWEEGFTEEGASFFIDHNQQTTTFRHPVTGQFSSENSEYVLREEPHPHMSKPERNQRPSSMVSETSTAGTTSTLEAKPGPKIVKSSSKVHSFGKRDQAIRRNLNVPVVVRGWLHKQDSSGMRLWKRRWFVLADYCLFYYKDSREEAVLGSIPLPSYVISPVAPEDRISRKYSFKAVHTGMRALIYSTTTAGSQMEHSGMRTYYFSADTLEDMNAWVRAMNQAAQVLSRSSLRRDVDKVERQAMPQANHTDACQECGHVGPGHSRDCPRRGYEDSYGFNRREQEEERFRAQRDPLEGRRDRSKARSPYLPAEEDALFVDLPGGPRGQQAQPQRAEKNGVPPYGLGEQNGTNGYQRTAPPRANPEKHSQRKTGLAQAEHWTKAQKGDGRSLPLDQTLPRQGPSQPLSFPENYQSLPKSTRHLSGSSSPPPRNLPSDYKYAQDRASHLKMSSEERRAHRDGTVWQLYEWQQRQQFRHGSPTAPIGAGSPEFTEQGRSRSLLEVPRSISVPPSPSDIPPPGPPRPFPPRRPHTPAERVTVKPPEQRRSVDISLGGSPRKARGHAAKNSSHVDRRSMPSMGYMTHTVSAPSLHGKSADDTYLQLKKDLEYLDLKMTGRDLLKDRSLKPMKIAESDIDVKLSIFCEQDRILQDLEDKIRALKENKDQLESVLEVLHRQTEQYRDQPQHLEKITCQQRLLQEDLVHIRAELCRESTEMENAWNEYLKLEKDVEQLKQTLQEQHRRAFFFQEKSQIQKDLWRIEDVMAGLSANKENYRVLVGSVKNPERKTVPLFPHPSVPSLSPTESKPALQPSPPTSPVRTPLEVRLFPQLQTYVPYRPHPPQLRKVMSPLQSPTKAKPQAEDEAPPRPPLPELYSPEDQPPAVPPLPREATIIRHTSVRGLKRQSDERKRDREQGQCVNGDLKVELRSYVSEPELASLSGDVPQPSLSLVGSESRYQTLPGRGLSGSTSRLQQSSTIAPYVTLRRGLNAENSSATFSRPKSALERLYSGDHQRGKMSAEEQLERMKRHQKALVRERKRTLSQGEKTGLLSARYLSQPLPGDLGSVC
B2 was tested, and the binding [1] was “binds”.

B3: GFP-tagged full-length mouse CAMSAP3 (protein, UniProt Q80VC9-1 1-1252)
chain: MVEAAPAGSGPLRRTFLVPEIKSLDQYDFSRAKAAASLAWVLRAAFGGAEHVPPELWEPFYTDQYAQEHVKPPVTRLLLSAELYCRAWRQALPQLEPSPSPSALLALLARRGTVPSLPEHPVREADLKHQPILMGAHLAVIDALMVAFSFEWTKTLPGPLALSSLEHKLLFWVDTTVRRLQEKTEQEAAQRASPAAPLDGASPAQPSIRYRKDRAIARRAPCFPNVTTLQDLASGAALAATIHCYCPQLLRLEEVCLKDPMSVADSLYNLQLVQDFCASHLPRGCPLSLEDLLYVPPPLKVNLVVLLAEMYMCFEVLKPDFVQAKDLPDGHAVSPRNTETVPSQNNSGSSSPVFNFRHPLLSPGGPQSPLRGSTGSLKSSPSMSHMEALGKAWNRQLSRPLSQAVSFSTPFGLDSDVDVVMGDPVLLRSVSSDSLGPPRPVSTSSRNSAQPAPESGDLPTIEEALQIIHSAEPRLLPDGAADGSFYLHSPEGLSKPPLSPYPPEGASKPLSDRLNKAPIYISHPENPSKSSPCSTGEILKPPPPSEGSPKAVASSPAANNSEVKMTSFAERKKQLVKAEAESGLGSPTSTPVAPEALSSEMSELGARLEEKRRAIEAQKRRIEAIFAKHRQRLGKSAFLQVQPREAAGEAEEEAELGSVPGGERPAGEGQGEPSLRHKSVTFSPDLGPVPPEGLGDYNRAVSKLSAALSSLQRDMQRLTDQQQRLLAPPEAPGPAPPPAAWVIPGPATGPKAASPSPARRAPAARRSPGPGPSPTPRSPKHARPAELKLAPLTRVLTPPHDVDSLPHLRKFSPSQVPVQTRSSILLSEGTPPEEPTTKPALIEIPLASLGEPAADEEGDGSPPGAEDSLEEEASSEGEPRSGLGFFYKDEDKPEDEMAQKRASLLERQQRRVEEARRRKQWQEAEKEQKREEAARLAQEAPGLAFTTPVVASAAPVATLAPTTRAMAPAEEEVGPRRGDFTRLEYERRAQLKLMDDLDKVLRPRASGTGGPGRGGRRATRPRSGCCDDSALARSPARGLLGSRLSKVYSQSTLSLSTVANEAPNNLGVKRPTSRAPSPSGLMSPSRLPGSRERDWENGSNASSPASVPEYTGPRLYKEPSAKSNKFIIHNALSHCCLAGKVNEPQKNRILEEIEKSKANHFLILFRDSSCQFRALYTLSGETEELSRLAGYGPRTVTPAMVEGIYKYNSDRKRFTQIPAKTMSMSVDAFTIQGHLWQSKKPTTPKKGGGTPK
For B3, the binding [3] was “binds”.

B4: GFP-tagged mouse CAMSAP3 coiled-coil region (CCs: 594-947) (domain or fragment, UniProt Q80VC9-1 594-947)
chain: PEALSSEMSELGARLEEKRRAIEAQKRRIEAIFAKHRQRLGKSAFLQVQPREAAGEAEEEAELGSVPGGERPAGEGQGEPSLRHKSVTFSPDLGPVPPEGLGDYNRAVSKLSAALSSLQRDMQRLTDQQQRLLAPPEAPGPAPPPAAWVIPGPATGPKAASPSPARRAPAARRSPGPGPSPTPRSPKHARPAELKLAPLTRVLTPPHDVDSLPHLRKFSPSQVPVQTRSSILLSEGTPPEEPTTKPALIEIPLASLGEPAADEEGDGSPPGAEDSLEEEASSEGEPRSGLGFFYKDEDKPEDEMAQKRASLLERQQRRVEEARRRKQWQEAEKEQKREEAARLAQEAPGLAFTT
B4 was tested, and the binding [3] was “binds”.
